These are yes or no findings as the source states them, for the method shown. Some results given as binding are weak or reduced against the parent protein; the word gives no strength.
Tests used:
[1] = target: aggregated tau in FFPE brain sections of an Alzheimer's disease patient (human) (UniProt P10636); assay: IHC on FFPE brain sections
[2] = target: aggregate tau fibrils purified from AD brain homogenates (human) (UniProt P10636); assay: ELISA on coated tau fibrils purified from AD brain
[3] = target: aggregated tau in FFPE brain sections of a normal individual (minimal tau aggregation) (human) (UniProt P10636); assay: IHC on FFPE brain sections, semi quantitative score (mild, +)
[4] = target: aggregated tau in FFPE brain sections of an Alzheimer's disease patient (human) (UniProt P10636); assay: IHC on FFPE brain sections, semi quantitative score (severe, +++)

Amino acid sequences for entries named in this document (tags omitted). A change or cut given only in a name is not applied to a line headed by its entry. Chains listed by the source or under a name are the forms on record and can include a tag or linker.
aggregated tau in FFPE brain sections of an Alzheimer's disease patient (P10636, form named): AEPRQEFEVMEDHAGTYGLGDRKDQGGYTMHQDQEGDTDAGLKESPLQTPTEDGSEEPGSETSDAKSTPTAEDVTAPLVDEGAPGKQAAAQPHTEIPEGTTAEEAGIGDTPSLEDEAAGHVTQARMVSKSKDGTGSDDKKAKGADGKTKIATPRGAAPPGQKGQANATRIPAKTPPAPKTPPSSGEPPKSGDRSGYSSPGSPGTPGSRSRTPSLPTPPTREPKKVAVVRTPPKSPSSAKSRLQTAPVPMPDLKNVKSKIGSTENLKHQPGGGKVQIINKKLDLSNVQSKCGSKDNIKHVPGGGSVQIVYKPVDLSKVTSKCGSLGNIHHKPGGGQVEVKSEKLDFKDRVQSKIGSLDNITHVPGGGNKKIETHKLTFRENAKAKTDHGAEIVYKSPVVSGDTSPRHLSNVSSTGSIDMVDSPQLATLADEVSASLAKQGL

Measured: binding

B1: Exemplified anti-Tau antibody (having both HCs of SEQ ID NO.68 and both LCs of SEQ ID NO.67) (antibody, human IgG4 S228P, kappa, F234A L235A, V domains shown)
VH: EVQLVQSGAEVKKPGESLKISCKGSGYTFSNYWIEWVRQMPGKGLEWMGEILPGSDSIKYEKNFKGQVTISADKSISTAYLQWSSLKASDTAMYYCARRGNYVDDWGQGTLVTVSS
VL: EIVLTQSPGTLSLSPGERATLSCRSSQSLVHSNQNTYLHWYQQKPGQAPRLLIYKVDNRFSGIPDRFSGSGSGTDFTLTISRLEPEDFAVYYCSQSTLVPLTFGGGTKVEIKR
binds: [1] | [2] | [3] | [4]
